From US20050090517A1, “Pharmaceutical combinations of cox-2 inhibitors and opiates” (priority 2002, published 2005)
For at least one compound, name, drawing or mass did not settle the structure.

Test system: reperfusion hyperalgesia of the tail of Sprague-Dawley rats
Test: Reperfusion hyperalgesia of the rat tail following transient ischaemia (tail flick latency, antihyperalgesic index)
Assay type: in vivo

With COc1ccc2c3c1O[C@H]1[C@@H](O)C=C[C@H]4[C@@H](C2)N(C)CC[C@@]341 [Codeine, codeine phosphate] the “Antihyperalgesic activity of the agent on its own at its dose in the ED50 of the triple combination, in words” value (meloxicam 0.22 mg/kg, codeine 0.88 mg/kg, paracetamol 59 mg/kg, FIG. 2 and regression analysis) was “no antihyperalgesic activity” and the “Antihyperalgesic activity of each agent administered separately, in words” value (oral, three doses each (FIG. 2), paracetamol limited to 266 mg/kg) was “dose-dependent antihyperalgesia activity”.
For Cc1cnc(NC(=O)C2=C(O)c3ccccc3S(=O)(=O)N2C)s1 [Meloxicam, meloxicam], the “Antihyperalgesic activity of the agent on its own at its dose in the ED50 of the triple combination, in words” value (rat, in vivo) was “no antihyperalgesic activity”.
